Patent publication US11440906B2, “Biguanide derivatives and their rearrangement products for use in the treatment of cancer” (CENTRE NATIONAL DE LA RECHERCHE SCIENTIFIQUE, priority 2017, dated 2022)
For at least one compound, name, drawing or mass did not settle the structure.

Test system: WM9 cells
Test: Resistance development in WM9 cells after 8 weeks of drug exposure
Format: cell-based, human
Settings: 8 weeks increasing concentrations, then 10 μM 48 hrs; FIG. 7B
Description: Different melanoma cell lines were purchased from the American Tissue Culture Collection: A375 and WM9 cells are mutated on B-Raf, CDKN2A and PTEN proteins; SKmel28 cells are mutated on B-Raf and P53 proteins; 1205Lu cells are mutated on B-Raf and PTEN proteins; G-361 cells are mutated on B-Raf and CDKN2A proteins; C8161 cells are mutated on B-Raf and K-Ras proteins; WM3912 cells are mutated on B-Raf and CDKN2A proteins; MeWo cells are mutated on P53 and CDKN2A proteins; WM3918 presents no mutations on characteristic proteins.
For trypan blue staining, […] of cells (melanoma and normal human cells) were aseptically transferred to a 1.5 mL clear Eppendorf tube and incubated for 3 min at room temperature with an equal volume of 0.4% trypan blue solution. Viable cells were counted and the results are expressed as the percentage of the value of control cells. All the experiments are performed 3 times in triplicate.
To study weither melanoma cells WM9 would develop resistance to CRO15, these cells were kept in culture during 8 weeks in presence of increasing concentrations of either, DMSO (control), PLX4032, CRO15 or MTF255. The starting concentration was 0.2 μM.
Along with non-treated WM9S (naive cells), drug-treated WM9S were then stimulated with 10 μM of each drug during 48 hrs. Viable cells were counted using the trypan blue dye exclusion method. […]

CCCS(=O)(=O)Nc1ccc(F)c(C(=O)c2c[nH]c3ncc(-c4ccc(Cl)cc4)cc23)c1F [PLX4032, vemurafenib, reference compound]
cell viability of WM9 after 8 weeks of treatment and stimulation with the drug: became resistant to PLX4032
